Assay results taken from PMC11792374.
No constants are given. Whether binding was seen depends on the method and setting. Binding seen in cells or lysates may run through a third protein. Some binding calls cover weakened binding; strength is not graded here.

Chains of the proteins cited; added tags and fusions are not shown.
UniProt O95477: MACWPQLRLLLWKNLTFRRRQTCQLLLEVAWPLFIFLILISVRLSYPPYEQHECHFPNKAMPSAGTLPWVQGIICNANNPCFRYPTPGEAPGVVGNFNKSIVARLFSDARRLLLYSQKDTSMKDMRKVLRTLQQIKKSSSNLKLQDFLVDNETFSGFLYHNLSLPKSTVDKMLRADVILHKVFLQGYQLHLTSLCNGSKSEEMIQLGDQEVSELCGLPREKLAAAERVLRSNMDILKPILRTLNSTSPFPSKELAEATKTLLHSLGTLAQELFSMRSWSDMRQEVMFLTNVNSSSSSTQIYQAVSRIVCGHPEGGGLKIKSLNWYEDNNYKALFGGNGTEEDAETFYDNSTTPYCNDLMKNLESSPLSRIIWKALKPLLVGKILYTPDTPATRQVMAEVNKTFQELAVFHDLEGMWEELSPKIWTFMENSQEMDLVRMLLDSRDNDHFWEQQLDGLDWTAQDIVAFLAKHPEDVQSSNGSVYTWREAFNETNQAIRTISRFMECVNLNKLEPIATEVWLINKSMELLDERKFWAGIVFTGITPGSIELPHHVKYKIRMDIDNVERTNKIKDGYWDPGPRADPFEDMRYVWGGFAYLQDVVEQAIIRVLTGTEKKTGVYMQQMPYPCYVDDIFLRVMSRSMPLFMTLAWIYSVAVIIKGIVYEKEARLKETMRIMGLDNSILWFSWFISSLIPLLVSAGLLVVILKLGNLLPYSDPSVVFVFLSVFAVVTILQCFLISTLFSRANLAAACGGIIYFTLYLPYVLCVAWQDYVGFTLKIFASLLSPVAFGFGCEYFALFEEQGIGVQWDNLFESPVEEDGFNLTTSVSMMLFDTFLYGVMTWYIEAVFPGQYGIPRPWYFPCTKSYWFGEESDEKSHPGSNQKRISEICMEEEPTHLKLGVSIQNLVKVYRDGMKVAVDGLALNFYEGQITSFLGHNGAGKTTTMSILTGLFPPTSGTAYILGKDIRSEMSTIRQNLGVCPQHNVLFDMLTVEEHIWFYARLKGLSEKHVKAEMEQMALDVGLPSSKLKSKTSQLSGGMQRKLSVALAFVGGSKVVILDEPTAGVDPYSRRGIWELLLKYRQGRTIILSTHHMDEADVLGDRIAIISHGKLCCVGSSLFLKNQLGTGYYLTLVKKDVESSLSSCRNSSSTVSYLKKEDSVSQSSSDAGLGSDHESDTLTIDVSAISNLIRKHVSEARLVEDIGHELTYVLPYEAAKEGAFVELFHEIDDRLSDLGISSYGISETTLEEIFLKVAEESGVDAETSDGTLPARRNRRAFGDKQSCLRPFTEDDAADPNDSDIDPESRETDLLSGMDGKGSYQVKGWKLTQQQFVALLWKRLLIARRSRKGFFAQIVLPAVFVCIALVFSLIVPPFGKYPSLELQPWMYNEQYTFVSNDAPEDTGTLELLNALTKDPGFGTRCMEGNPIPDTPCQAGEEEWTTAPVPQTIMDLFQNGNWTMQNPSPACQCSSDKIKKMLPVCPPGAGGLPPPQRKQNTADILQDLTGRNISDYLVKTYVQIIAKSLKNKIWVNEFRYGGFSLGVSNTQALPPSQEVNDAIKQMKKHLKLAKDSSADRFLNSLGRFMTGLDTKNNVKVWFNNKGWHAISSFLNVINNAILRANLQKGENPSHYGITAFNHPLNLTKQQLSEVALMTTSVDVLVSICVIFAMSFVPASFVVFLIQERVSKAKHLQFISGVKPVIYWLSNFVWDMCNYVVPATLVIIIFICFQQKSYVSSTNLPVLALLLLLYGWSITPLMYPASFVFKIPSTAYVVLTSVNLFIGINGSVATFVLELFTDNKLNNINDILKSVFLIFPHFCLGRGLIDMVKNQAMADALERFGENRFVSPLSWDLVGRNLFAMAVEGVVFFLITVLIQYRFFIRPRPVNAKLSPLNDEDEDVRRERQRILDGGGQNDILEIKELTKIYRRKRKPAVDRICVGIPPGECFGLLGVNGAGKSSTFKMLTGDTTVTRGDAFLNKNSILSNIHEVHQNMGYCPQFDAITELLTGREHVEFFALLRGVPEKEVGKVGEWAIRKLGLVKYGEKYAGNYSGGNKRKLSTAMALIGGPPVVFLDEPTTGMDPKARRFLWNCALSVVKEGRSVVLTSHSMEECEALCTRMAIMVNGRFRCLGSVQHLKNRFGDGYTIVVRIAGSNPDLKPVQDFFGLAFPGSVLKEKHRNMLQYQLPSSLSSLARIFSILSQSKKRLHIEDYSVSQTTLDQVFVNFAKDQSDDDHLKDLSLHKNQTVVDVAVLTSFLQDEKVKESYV
UniProt P41233: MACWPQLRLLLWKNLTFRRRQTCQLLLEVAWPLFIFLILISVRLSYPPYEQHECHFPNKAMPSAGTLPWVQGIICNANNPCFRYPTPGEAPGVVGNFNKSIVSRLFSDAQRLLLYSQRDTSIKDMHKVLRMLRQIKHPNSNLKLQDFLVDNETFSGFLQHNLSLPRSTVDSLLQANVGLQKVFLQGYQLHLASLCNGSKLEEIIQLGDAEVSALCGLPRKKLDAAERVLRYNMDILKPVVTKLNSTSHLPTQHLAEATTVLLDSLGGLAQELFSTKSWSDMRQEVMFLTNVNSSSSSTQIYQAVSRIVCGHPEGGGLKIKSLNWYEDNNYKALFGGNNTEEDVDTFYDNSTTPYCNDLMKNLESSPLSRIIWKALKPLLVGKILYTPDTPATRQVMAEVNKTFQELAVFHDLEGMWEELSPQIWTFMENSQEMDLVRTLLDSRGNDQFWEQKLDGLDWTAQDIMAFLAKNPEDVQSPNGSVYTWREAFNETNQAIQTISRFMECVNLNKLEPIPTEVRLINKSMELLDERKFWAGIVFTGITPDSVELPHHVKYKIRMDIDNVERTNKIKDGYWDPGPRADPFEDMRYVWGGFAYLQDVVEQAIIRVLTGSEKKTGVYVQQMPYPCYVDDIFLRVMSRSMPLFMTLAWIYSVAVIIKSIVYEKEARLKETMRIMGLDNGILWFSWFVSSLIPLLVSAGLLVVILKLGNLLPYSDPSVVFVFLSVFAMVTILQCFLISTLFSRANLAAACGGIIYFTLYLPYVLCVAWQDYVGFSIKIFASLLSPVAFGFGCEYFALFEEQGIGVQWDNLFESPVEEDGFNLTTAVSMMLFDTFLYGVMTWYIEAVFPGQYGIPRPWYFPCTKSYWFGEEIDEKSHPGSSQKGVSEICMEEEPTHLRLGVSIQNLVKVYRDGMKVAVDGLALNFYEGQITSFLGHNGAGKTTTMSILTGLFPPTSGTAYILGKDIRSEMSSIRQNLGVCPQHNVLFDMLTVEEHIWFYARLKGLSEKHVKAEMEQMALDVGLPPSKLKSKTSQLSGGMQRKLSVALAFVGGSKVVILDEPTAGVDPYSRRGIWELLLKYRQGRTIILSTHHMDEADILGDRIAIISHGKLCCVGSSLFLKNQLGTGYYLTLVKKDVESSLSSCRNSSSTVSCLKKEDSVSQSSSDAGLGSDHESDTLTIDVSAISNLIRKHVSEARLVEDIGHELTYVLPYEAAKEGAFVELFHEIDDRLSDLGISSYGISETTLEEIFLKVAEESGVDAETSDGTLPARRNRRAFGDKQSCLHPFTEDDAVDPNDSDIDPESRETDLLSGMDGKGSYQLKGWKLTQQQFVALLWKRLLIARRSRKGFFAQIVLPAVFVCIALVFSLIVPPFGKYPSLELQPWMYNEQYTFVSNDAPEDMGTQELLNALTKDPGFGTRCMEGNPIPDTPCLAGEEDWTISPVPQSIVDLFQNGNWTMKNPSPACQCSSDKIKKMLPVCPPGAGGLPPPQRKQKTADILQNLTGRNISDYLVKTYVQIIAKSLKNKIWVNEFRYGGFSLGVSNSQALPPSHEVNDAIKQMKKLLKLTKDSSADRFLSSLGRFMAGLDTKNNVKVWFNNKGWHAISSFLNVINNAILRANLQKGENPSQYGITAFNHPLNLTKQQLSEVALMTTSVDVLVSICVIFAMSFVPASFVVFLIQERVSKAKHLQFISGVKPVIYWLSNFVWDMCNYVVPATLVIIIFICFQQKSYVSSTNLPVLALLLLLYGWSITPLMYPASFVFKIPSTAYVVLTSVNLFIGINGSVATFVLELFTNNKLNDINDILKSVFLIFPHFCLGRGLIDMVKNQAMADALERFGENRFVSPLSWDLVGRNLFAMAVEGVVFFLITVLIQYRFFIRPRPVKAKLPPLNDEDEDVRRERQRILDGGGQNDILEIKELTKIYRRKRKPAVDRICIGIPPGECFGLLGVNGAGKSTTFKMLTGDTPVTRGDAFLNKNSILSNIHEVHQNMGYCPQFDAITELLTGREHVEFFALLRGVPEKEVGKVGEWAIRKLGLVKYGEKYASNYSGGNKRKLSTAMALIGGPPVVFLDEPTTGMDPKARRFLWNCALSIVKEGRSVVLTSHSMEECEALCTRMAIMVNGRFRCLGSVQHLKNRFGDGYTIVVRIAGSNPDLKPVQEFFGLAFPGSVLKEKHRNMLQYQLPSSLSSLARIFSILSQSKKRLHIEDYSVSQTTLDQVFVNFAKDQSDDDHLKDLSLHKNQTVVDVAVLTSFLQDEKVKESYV
UniProt P63010: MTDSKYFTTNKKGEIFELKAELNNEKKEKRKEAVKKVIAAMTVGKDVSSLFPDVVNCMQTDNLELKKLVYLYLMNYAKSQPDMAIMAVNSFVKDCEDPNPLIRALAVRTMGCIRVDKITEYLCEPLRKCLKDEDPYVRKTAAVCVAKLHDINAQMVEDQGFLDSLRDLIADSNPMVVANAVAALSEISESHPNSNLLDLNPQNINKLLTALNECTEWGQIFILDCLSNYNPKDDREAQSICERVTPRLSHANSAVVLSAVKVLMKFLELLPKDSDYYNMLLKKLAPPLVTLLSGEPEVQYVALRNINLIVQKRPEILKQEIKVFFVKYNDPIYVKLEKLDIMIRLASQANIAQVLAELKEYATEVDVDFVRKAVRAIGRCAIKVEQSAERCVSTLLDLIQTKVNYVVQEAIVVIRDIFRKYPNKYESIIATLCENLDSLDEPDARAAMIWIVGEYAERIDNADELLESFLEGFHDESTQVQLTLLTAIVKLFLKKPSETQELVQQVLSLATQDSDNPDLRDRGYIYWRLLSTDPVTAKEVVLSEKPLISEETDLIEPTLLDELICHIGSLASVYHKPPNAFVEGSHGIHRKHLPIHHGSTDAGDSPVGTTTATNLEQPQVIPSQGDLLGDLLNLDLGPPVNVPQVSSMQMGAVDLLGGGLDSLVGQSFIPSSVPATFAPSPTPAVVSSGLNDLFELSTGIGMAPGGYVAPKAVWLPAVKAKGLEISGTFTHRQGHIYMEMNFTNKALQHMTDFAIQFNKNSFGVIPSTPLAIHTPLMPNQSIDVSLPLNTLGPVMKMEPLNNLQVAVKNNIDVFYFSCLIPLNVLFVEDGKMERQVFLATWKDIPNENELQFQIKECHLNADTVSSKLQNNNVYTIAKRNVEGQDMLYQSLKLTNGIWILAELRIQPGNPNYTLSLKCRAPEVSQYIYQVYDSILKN

B1: Caveolin-1, endogenous in immortalized mouse astrocytes (protein, UniProt P49817 1-178)
chain: MSGGKYVDSEGHLYTVPIREQGNIYKPNNKAMADEVTEKQVYDAHTKEIDLVNRDPKHLNDDVVKIDFEDVIAEPEGTHSFDGIWKASFTTFTVTKYWFYRLLSTIFGIPMALIWGIYFAILSFLHIWAVVPCIKSFLIEIQCISRVYSIYVHTFCDPLFEAIGKIFSNIRISTQKEI

Legend:
[1] = biological target: ATP-binding cassette transporter A1 (ABCA1) tagged with GFP (UniProt O95477); assay: co-IP; GFP-Trap agarose on RIPA lysates of HeLa (ABCA1-GFP) or HeLa (negative) cells, overnight at 4 °C; western blotting
[2] = biological target: ATP-binding cassette transporter A1 (ABCA1), endogenous in immortalized mouse astrocytes (mouse (endogenous in immortalized mouse astrocytes)) (UniProt P41233); assay: co-IP; anti-ABCA1 antibody or species-matched IgG with Dynabeads Protein G on RIPA lysates of immortalized astrocytes, overnight at 4 °C; washed with 0.1% TBST; western blotting

| Molecule | binding [1] | binding [2] |
| --- | --- | --- |
| Caveolin-1 (from UniProt Q03135 1-178) | binds |  |
| adaptor-related protein complex 2 subunit beta 1 (from UniProt P63010 1-937) | binds |  |
| B1 |  | binds |
